In PubChem BioAssay AID662 (National Center for Advancing Translational Sciences (NCATS), 2007):
Some of the results follow. Further columns of the screen follow, without active or inactive calls. Most of these compounds were active or inconclusive in the main read-out, so they are no random draw. Potencies come from curve fits of mixed quality, noted in brackets.

Test: Cell signaling CRE-BLA (Fsk stim)
Conditions: CHO CRE-bla reporter (cAMP response element driving beta-lactamase), forskolin EC10, beta-lactamase ratio; measured here: 460 nm blue channel
Summary of the method: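 Using CellSensor CRE-bla CHO cells in Opti-MEM with 0.5% dialyzed FBS, compounds were titrated with EC10 NKH 477 for 3 h at 37 °C. CCF4 ratio (460/530 nm) gave %Activity; AC50 derived.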

| SMILES | AC50 |
| --- | --- |
| CC1=C(/C=C/C(C)=C/C=C/C(C)=C\C=O)C(C)(C)CCC1 | 15.8 µM [falling, partial curve] |
| CCOC(=O)C1CCCN(C(=O)CN2C(=O)c3ccccc3C2=O)C1 (configuration not stated) | 1 µM [falling, partial curve] |
| CCc1nnc(NC(=O)CSc2nnc(-c3ccoc3C)n2-c2cccc(C)c2)s1 | 12.6 µM [rising, partial curve] |
| Nc1c(C(=O)c2ccccc2)oc2ccc(Br)cc12 | 25.1 µM [rising, single point] |
| CCOC(=O)CCCNC(=O)COC(=O)c1cccc(C)c1O | 0.398 µM [rising, single point] |
| O=C(COc1ccccc1)Nc1ccccc1N1CCCCC1 | 7.94 µM [rising, partial curve] |
| O=C(Nc1cccnc1)c1c(F)c(F)c(F)c(F)c1F | 12.6 µM [falling, partial curve] |
| O=C(CC(CC(=O)c1ccccc1)C(=O)O)c1ccccc1 | 3.16 µM [falling, partial curve] |
| Cc1nc(SCC(=O)Nc2ccc3c(c2)OCCO3)c2oc3ccccc3c2n1 | 0.398 µM [rising, full curve] |
| N#CC(C(=O)OC1CCCCC1)c1nc2ccccc2nc1N1CCOCC1 (configuration not stated) | 15.8 µM [rising, partial curve] |
| CCN(CC)C(=O)c1sc(NC(=O)Cc2cccs2)c(C#N)c1C | 10 µM [rising, partial curve] |
| Cc1ccc(C)c(-c2nnc(OCC(=O)Nc3cc(C)on3)c3ccccc23)c1 | 10 µM [rising, single point] |
| CCCCN(CCCC)S(=O)(=O)c1ccc2oc(C(=O)N3CCOCC3)c(C)c2c1 | 25.1 µM [rising, single point] |
| COc1ccccc1-c1noc(-c2cc(OC)c(OC)c(OC)c2)n1 | 0.794 µM [rising, full curve] |
| CC[C@]1(O)C[C@@H]2CN(CCc3c([nH]c4ccccc34)[C@](C(=O)OC)(c3cc4c(cc3OC)N(C=O)[C@H]3[C@@](O)(C(=O)OC)[C@H](C(=O)OC)[C@@]5(CC)C=CCN6CC[C@]43[C@H]65)C2)C1 | 0.501 µM [rising, full curve] |
| Nc1c(C(=O)NCCN2CCOCC2)c2nc3ccccc3nc2n1-c1ccccc1 | 3.16 µM [falling, full curve] |
| C=C(C)COc1ccc(-c2nc(N)ncc2-c2ccc(OC)cc2)c(O)c1 | 12.6 µM [falling, partial curve] |
| COc1ccc(Cc2nnn(CC(=O)O)n2)cc1 | 0.158 µM [falling, full curve] |
| CCOc1ccc2nc(SCC(=O)NC3CCS(=O)(=O)C3)[nH]c2c1 (configuration not stated) | 0.0794 µM [falling, full curve] |
| COCCn1c(=O)c(-c2cc(F)cc(F)c2)nc2cnc(N3CCN(C)CC3)nc21 | 12.6 µM [rising, partial curve] |
| COC(=O)c1cccc(NC(=O)CN2CCC(NC(=O)c3cc(OC)c(OC)c(OC)c3)CC2)c1 | 12.6 µM [rising, partial curve] |
| Cc1[nH]nc2c1C(c1ccc(F)cc1)C1=C(CC(C)(C)CC1=O)N2 (configuration not stated) | 0.794 µM [falling, full curve] |
| Cc1cc(-n2ccc(=O)[nH]c2=O)nc(-c2ccccc2)n1 | 12.6 µM [rising, single point] |

| SMILES | AC50 |
| --- | --- |
| O=C(Nc1ccc(-c2noc(CCc3ccccc3)n2)cc1)c1ccco1 | 3.16 µM [falling, full curve, poor fit] |
| CCC1(CC)Cc2ccccc2-c2nc(CN3CCOCC3)[nH]c(=O)c21 | 10 µM [rising, single point] |
| Cc1n[nH]c(=O)nc1N1CCc2ccccc2C1 | 0.00398 µM [falling, full curve, poor fit] |
| CCOCCCNC(=O)NC12CC3CC(CC(C3)C1)C2 | 3.98 µM [rising, partial curve] |
| O=C(Nc1ncc(Cc2ccccc2)s1)c1cccs1 | 5.01 µM [rising, single point] |
| CCN(CC)c1nc(N)c2c(N)nc3c(c2c1C#N)CC(c1ccccc1)O3 (configuration not stated) | 12.6 µM [rising, partial curve] |
| CCOC(=O)c1c(NC(=O)CSc2nnnn2C)sc(C)c1C | 12.6 µM [rising, single point] |
| CCCOC(=O)c1ccc(-c2c(C)noc2-c2ccc(OC)cc2O)o1 | 25.1 µM [falling, single point] |
| COc1ccccc1N1CCN(C(=O)c2cc3c(=O)n(C)c4ccccc4c3n2C)CC1 | 3.16 µM [rising, partial curve] |
| COc1ccc(-n2c(=O)c(-c3cccs3)nc3cnc(Oc4ccccc4)nc32)cc1 | 5.01 µM [rising, partial curve] |
| CCOC(=O)N1CCN(c2ccc(S(=O)(=O)N(Cc3ccccc3)Cc3ccccc3)cn2)CC1 | 0.126 µM [falling, partial curve] |
| O=S(=O)(O)c1ccc2cc(N=Nc3cc(S(=O)(=O)O)c4cccnc4c3O)ccc2c1 | 3.98 µM [rising, single point] |
| CCc1ccccc1NC1c2ccccc2C(=O)N1c1cccnc1 (configuration not stated) | 0.1 µM [falling, partial curve, poor fit] |
| Nc1c(C(=O)NCC2CCCO2)c2nc3ccccc3nc2n1-c1ccccc1 (configuration not stated) | 12.6 µM [rising, partial curve] |
| Cc1nc(NCc2ccc3c(c2)OCO3)c2oc3ccccc3c2n1 | 3.98 µM [rising, partial curve] |
| O=C(c1cccn2c(=O)c3cc(Cl)ccc3nc12)N1CCOCC1 | 1.26 µM [rising, full curve] |
| CC(=O)O[C@]1(C(C)=O)CC[C@H]2[C@@H]3C[C@H](C)C4=CC(=O)CC[C@]4(C)[C@H]3CC[C@@]21C | 25.1 µM [rising, partial curve] |
| CC(C)C(=O)Nc1cc(C(F)(F)F)ccc1N1CCOCC1 | 0.501 µM [rising, full curve, poor fit] |
| Cc1cc(NC(=O)c2ccc3nc(-c4ccccc4)c(-c4ccccc4)nc3c2)no1 | 25.1 µM [falling, single point] |
| CCc1nc2ccccc2c(C(=O)OCC(=O)NCc2ccco2)c1C | 10 µM [rising, partial curve] |
| CC(=O)NC12CC3CC(C)(C1)CC(NC(C)=O)(C3)C2 | 0.00398 µM [falling, full curve, poor fit] |
| NC(=O)c1c(NC(=O)c2cc3ccccc3o2)sc2c1CCC2 | 15.8 µM [rising, partial curve] |
| CC(C)Cc1nc2oc3c(N4CCN(CCO)CC4)ncnc3c2c2c1CCCC2 | 6.31 µM [rising, partial curve] |

No new results follow: an excerpt of the list.

| SMILES | AC50 |
| --- | --- |
| CC(C)C(=O)Nc1cc(C(F)(F)F)ccc1N1CCOCC1 | 0.501 µM [rising, full curve, poor fit] |
| Cc1cc(NC(=O)c2ccc3nc(-c4ccccc4)c(-c4ccccc4)nc3c2)no1 | 25.1 µM [falling, single point] |
| CCc1nc2ccccc2c(C(=O)OCC(=O)NCc2ccco2)c1C | 10 µM [rising, partial curve] |

Further structures follow:

| SMILES | AC50 |
| --- | --- |
| COc1cccc(Cn2c(=O)c(-c3cc(F)cc(F)c3)nc3cnc(N(C)C)nc32)c1 | 3.98 µM [rising, partial curve] |
| O=C(c1ccco1)N1CCN(C(=O)c2ccc(COc3ccc(F)cc3)o2)CC1 | 0.0158 µM [falling, full curve, poor fit] |
| CC(C)Oc1ccc(C(CC(=O)O)NC(=O)CSc2ncn[nH]2)cc1 (configuration not stated) | 0.251 µM [falling, partial curve] |
| Cc1cc(C)c(C(N)=O)c(Nc2cccc(Cl)c2C)n1 | 25.1 µM [rising, single point] |
| CC(C)CNc1cc(=O)n(C)c(=O)n1C | 2.51 µM [rising, full curve] |
| CCc1c2c(nc3cccc(SC)c13)COC2 | 7.94 µM [rising, partial curve] |
| Cn1c(N)c(S(=O)(=O)c2ccc(Br)cc2)c2nc3ccccc3nc21 | 12.6 µM [rising, partial curve] |
| CS(=O)(=O)Nc1cccc(-c2ccc3ncnc(NCc4cccs4)c3c2)c1 | 6.31 µM [rising, full curve] |
| CS(=O)(=O)c1ccc2nc(NC(=O)C3COc4ccccc4O3)sc2c1 (configuration not stated) | 0.0316 µM [falling, full curve, poor fit] |
| Clc1ccc(-n2ncc3c(NCCN4CCOCC4)ncnc32)cc1 | 10 µM [rising, partial curve] |
| Nc1nc2n[nH]nc2c(=O)[nH]1 | 5.01 µM [rising, partial curve] |
| O=c1c(-c2cccc(F)c2)nc2cncnc2n1Cc1ccccc1Cl | 12.6 µM [rising, single point] |
| O=C(O)CCCC(=O)NCCc1cccc(Cl)c1 | 0.631 µM [rising, full curve, poor fit] |
| Cc1ccc(Nc2cc(C)nn2-c2nc(C)cc(=O)[nH]2)cc1 | 10 µM [rising, single point] |
| Cc1cc(NC(=O)Cn2cnc3c(cnn3C(C)(C)C)c2=O)no1 | 0.0158 µM [falling, full curve, poor fit] |
| CCNc1nc2c(c(=O)[nH]c(=O)n2C)n1CC(C)C | 12.6 µM [rising, partial curve] |
| O=C(CCN1CCc2ccccc2C1)c1ccc2c(c1)OCCO2 | 10 µM [falling, partial curve] |
| CCC1=C/C(=C\c2ccc3c(c2)OCO3)C(=O)S1 | 10 µM [falling, partial curve, poor fit] |
| COc1ccccc1N1CCN(c2nc(C)nc3c2oc2ccccc23)CC1 | 2 µM [rising, partial curve] |
| O=C(Cc1n[nH]c(=O)c2ccccc12)NCc1ccccn1 | 3.16 µM [falling, partial curve, poor fit] |
| CC(=O)NC(CCS(C)(=O)=O)C(=O)Nc1ccc(F)cc1Cl (configuration not stated) | 2.51 µM [falling, single point] |
